Experimental data: paper PMC4527729, “The Inner Membrane Protein PilG Interacts with DNA and the Secretin PilQ in Transformation”
No constants are given. Whether binding was seen depends on the method and setting. For some of these results: A result given as binding can be weak or reduced; the word gives no strength.

What was measured:
Assay in all cases: far-Western, overlay or dot blot; 1 ug of each purified protein (PilQ proteins, PilN, PilO, PilP, PilF, PilT, ComP, ComL, purified pili, BSA) resolved by SDS-PAGE, blotted on nitrocellulose, renatured overnight at 4°C in renaturing buffer (0.25% gelatin, 0.5% BSA, 0.2% Triton X-100, 10 mM Tris-HCl, 5 mM β-mercaptoethanol, 100 mM NaCl, pH 7.5); membrane incubated 3 h with 1 ug purified full-length or partial PilG in 10 ml renaturing buffer; bound PilG detected with rabbit antiserum; both purified
PilT (N. meningitidis) = target: T1, PilT (N. meningitidis) (UniProt O85741)
T1 sequence: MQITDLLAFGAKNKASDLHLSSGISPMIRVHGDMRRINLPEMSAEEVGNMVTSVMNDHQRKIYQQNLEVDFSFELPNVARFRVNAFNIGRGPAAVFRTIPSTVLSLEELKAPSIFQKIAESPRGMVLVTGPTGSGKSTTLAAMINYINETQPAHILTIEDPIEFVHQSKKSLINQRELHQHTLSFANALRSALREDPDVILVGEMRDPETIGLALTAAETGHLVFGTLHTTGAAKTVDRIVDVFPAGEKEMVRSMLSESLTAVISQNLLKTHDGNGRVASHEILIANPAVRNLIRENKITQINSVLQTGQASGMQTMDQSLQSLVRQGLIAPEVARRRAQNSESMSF

[1] = target: T2, PilQ_(25-132) (N. meningitidis) (UniProt Q70M91)
T2 sequence: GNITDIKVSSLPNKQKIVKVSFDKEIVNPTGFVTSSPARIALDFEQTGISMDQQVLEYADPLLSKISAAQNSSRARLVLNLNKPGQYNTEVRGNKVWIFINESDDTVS

[2] = target: T3, PilQ_(350-761) (N. meningitidis) (UniProt Q70M91)
T3 sequence: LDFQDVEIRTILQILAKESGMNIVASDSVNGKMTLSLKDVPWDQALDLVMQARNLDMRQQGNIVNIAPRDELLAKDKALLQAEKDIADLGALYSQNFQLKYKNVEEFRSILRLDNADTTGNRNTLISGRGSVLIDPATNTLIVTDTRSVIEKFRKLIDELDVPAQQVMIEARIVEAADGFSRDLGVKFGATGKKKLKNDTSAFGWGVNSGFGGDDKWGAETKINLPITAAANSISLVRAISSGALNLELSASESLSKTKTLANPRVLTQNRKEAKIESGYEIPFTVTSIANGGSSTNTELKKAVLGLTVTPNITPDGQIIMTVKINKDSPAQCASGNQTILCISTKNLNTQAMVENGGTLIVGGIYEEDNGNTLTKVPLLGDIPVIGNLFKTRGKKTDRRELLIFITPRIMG

[3] = target: T4, PilQ_(217-478) (N. meningitidis) (UniProt Q70M91)
T4 sequence: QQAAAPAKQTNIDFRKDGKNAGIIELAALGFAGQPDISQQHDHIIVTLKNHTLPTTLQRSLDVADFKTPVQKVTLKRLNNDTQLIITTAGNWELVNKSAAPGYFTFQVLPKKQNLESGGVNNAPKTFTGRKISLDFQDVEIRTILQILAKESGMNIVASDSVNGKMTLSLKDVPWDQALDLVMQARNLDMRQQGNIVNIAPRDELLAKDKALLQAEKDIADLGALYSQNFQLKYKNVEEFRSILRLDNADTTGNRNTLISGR

[4] = target: T5, PilQ_(25-354) (N. meningitidis) (UniProt Q70M91)
T5 sequence: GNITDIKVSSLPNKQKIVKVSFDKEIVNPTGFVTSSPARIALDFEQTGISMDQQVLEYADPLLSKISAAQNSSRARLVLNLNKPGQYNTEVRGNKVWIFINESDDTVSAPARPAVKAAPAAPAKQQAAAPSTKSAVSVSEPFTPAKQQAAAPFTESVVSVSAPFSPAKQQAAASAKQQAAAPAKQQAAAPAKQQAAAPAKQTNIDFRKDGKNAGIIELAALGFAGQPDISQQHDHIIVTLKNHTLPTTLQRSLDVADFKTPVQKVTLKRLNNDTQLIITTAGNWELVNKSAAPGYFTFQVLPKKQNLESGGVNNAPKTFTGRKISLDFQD

Substance	binding (PilT (N. meningitidis))	binding [1]	binding [2]	binding [3]	binding [4]
PilG full-length (PilG_(FL/1-410)) (N. meningitidis MC58)	no binding (tested: 1 μg in 10 ml renaturing buffer)	binds	no binding (tested: 1 μg in 10 ml renaturing buffer)	no binding (tested: 1 μg in 10 ml renaturing buffer)	binds
PilG_(1-178) (N. meningitidis MC58) (domain or fragment)	no binding (tested: 1 μg in 10 ml renaturing buffer)	binds	no binding (tested: 1 μg in 10 ml renaturing buffer)	no binding (tested: 1 μg in 10 ml renaturing buffer)	binds
PilG_(1-256) (N. meningitidis MC58) (domain or fragment)	no binding (tested: 1 μg in 10 ml renaturing buffer)	binds	no binding (tested: 1 μg in 10 ml renaturing buffer)	no binding (tested: 1 μg in 10 ml renaturing buffer)	binds
PilG_(166-410) (N. meningitidis MC58) (domain or fragment)	no binding (tested: 1 μg in 10 ml renaturing buffer)	no binding (tested: 1 μg in 10 ml renaturing buffer)	no binding (tested: 1 μg in 10 ml renaturing buffer)	no binding (tested: 1 μg in 10 ml renaturing buffer)	no binding (tested: 1 μg in 10 ml renaturing buffer)
PilG_(257-410) (N. meningitidis MC58) (domain or fragment)	no binding (tested: 1 μg in 10 ml renaturing buffer)	no binding (tested: 1 μg in 10 ml renaturing buffer)	no binding (tested: 1 μg in 10 ml renaturing buffer)	no binding (tested: 1 μg in 10 ml renaturing buffer)	no binding (tested: 1 μg in 10 ml renaturing buffer)
